These results are taken from PubChem BioAssay AID624316 (Broad Institute, 2012).

The other results are listed elsewhere or left out. Entries without a call are filed as inconclusive in the source.

This test in a line: decrease of TRPM1 reporter luminescence in SK-MEL-5 – cell-based, dry powder samples, set 4, MITF inhibitor project, dose response (AID 624316). The note with it: SK-MEL-5 TRPM1 promoter luciferase reporter, 24 h; at 35 µM (top of the series). The method in brief: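 Assay system: SK-MEL-5 melanoma line stably carrying TRPM1 promoter–luciferase reporter; Buffer or medium: phenol-red-free DMEM, 10% FBS; Controls: parthenolide positive control; Times: compound added 24 h post-plating, 24 h exposure at 37 °C; Detection: luciferase luminescence with SteadyGlo, 5 min room temperature; Dosing: compounds pinned into wells as DMSO solutions.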
A general note: A reporter such as luciferase makes a cellular process visible.

Take `CN1CCN(C2=C(NS(=O)(=O)c3ccc(Br)cc3)C(=O)c3ccccc3C2=O)CC1`: the activity change, negative = inhibition was -88.4%.
